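Luminescence from an EWS-FLI1 target-promoter (NR0B1) reporter, set against a CMV-promoter reporter, two days after silencing single genes in TC32 Ewing sarcoma cells.
Each siRNA was applied at 20 nM.
A z-score of the log NR0B1-over-CMV signal, less the median of siRNAs with the same seed; more negative means a stronger specific loss of the NR0B1 reporter.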

The strongest results of the screen are mostly left out here.
Sequences are the guide (antisense) strand, without overhang.

* UUGCCGAUUUCAGUUGAUC against DTYMK | seed-corrected z-score 0.5755
* UUCCGUAACAGUUCAAUGC against CHD6 | seed-corrected z-score 0.2989
* UUAGCUUUGUGGUGGCUCU against HIST1H2AM | seed-corrected z-score -0.3749
* UGAGAGUCUGUCAUCUUCC against FAM188B2 | seed-corrected z-score -1.217
* UUUGAGUCUGGACGAAUCC against PRMT5 | seed-corrected z-score -0.2185
* UAAGAGAAUAGGAUUCCAC against OR7C2 | seed-corrected z-score 0.6836
* UCCAUAGACAAGUCGAGGC against PAPOLA | seed-corrected z-score -0.4125
* AAAGGAAACCGGAUUGUAC against LOC729088 | seed-corrected z-score 0.7356
* AUAAGAAUAACCGUAAUCA against SLN | seed-corrected z-score -1.853
* UCUGUACAGAGAUAGCUGC against MAPK8IP3 | seed-corrected z-score -0.4626
* UGACUUGCCUGUACUGAGC against RASL12 | seed-corrected z-score 0.5915
* UAGAAUUUCUUGAUGGUGC against BTBD16 | seed-corrected z-score 0.05742
* UGAGGAUAUAUGAGAAGCC against OR51D1 | seed-corrected z-score -1.08
* UUCAUAUAGGAAGUUAUCC against GPR160 | seed-corrected z-score 0.2494
* AUAAUUUCCACAAAUUCGU against TEX35 | seed-corrected z-score 0.7825
* UCAUGUAAUACACCAGUAG against XK | seed-corrected z-score 0.2193
* UUGCCUACAAACACCAGGU against DNAL1 | seed-corrected z-score 0.05113
* UUCGGAUUUUCCUCAAAGC against SLC26A3 | seed-corrected z-score 0.2421
* UAUGGAGAUUUGCUCAUUG against FABP5P1 | seed-corrected z-score -0.79
* UGUCUCAUAGGGCAAGUCC against TBC1D20 | seed-corrected z-score 0.2873
* UUGCGAGGAAUCAUGAAGU against ADIRF | seed-corrected z-score -0.2742
* AUAGUCAUCGGCACUCUCC against HIPK2 | seed-corrected z-score 1.91
* UUGUAGAUGAUAUAUCUUC against C9orf91 | seed-corrected z-score -0.208
* UUAAGUGUCAUAGCUAAAG against SEPSECS | seed-corrected z-score 0.2851
* UGGAGUACCAUCCAGCUUU against DNAL1 | seed-corrected z-score 0.3447
* AAUAGUUCCCUCAGGGUCU against C9orf173 | seed-corrected z-score -0.1785
* UUACAUUAUGUCGUACUUC against C3orf38 | seed-corrected z-score 0.4174
* AUUCGUCAUAGUACUGAGG against ANKRD12 | seed-corrected z-score 0.284
* UGACUGAGGAGUAGAAGCC against HOXC11 | seed-corrected z-score -1.037
* UUACUUUUCAUAGGCCUUU against IL17B | seed-corrected z-score 0.4435
* UUGCGUUCCCGCAUUAUGG against CDH19 | seed-corrected z-score -0.3642
* UCAUCAUCGCUGGAGAUGG against CYB5R3 | seed-corrected z-score -0.851
* AAAUGGGUAGGAUAUUGUC against SLC25A16 | seed-corrected z-score 0.02488
* UUGUGAAUUACAAGGGAUG against ZNF702P | seed-corrected z-score -1.688
* UCCAGGAUCUGCAACAUCU against LOC283440 | seed-corrected z-score 0.1087
* UUCAUAGGCAUCAAGAACC against WARS | seed-corrected z-score -0.3287
* AUACUGAGAGAUGCCAUCU against LOC729973 | seed-corrected z-score -0.7562

Once more, the final 2:

UUCAUAGGCAUCAAGAACC against WARS gave seed-corrected z-score -0.3287.
AUACUGAGAGAUGCCAUCU against LOC729973 gave seed-corrected z-score -0.7562.

Source: PubChem BioAssay AID1159506 (NCATS, 2015).